The list is a part of this screen's results and no random one: it is rich in T/C values a quarter to a half above the control, in often repeated tests (any T/C) and in doses without a T/C. Further doses and runs are listed elsewhere. T/C is the treated group as % of the vehicle group. Some doses have a count of surviving animals in place of a T/C: the source files T/C as zero there, which appears to mark a toxic dose or a test without result, not a measured value. Some doses without a T/C left all or most animals alive at the check, yet need not have been tolerated: the source hardly ever lists a survival T/C far under the control, and the zero likely stands for such cases as well. Counts of survivors are from the toxicity check (mostly the fifth day) where no day follows; animals may have died later. Schedule codes are those of the source, read here as Q, the interval in days (D) or hours (H), X, the number of doses. Where survival is the endpoint, the PubChem record calls one and a half times the control and up active, and a quarter to a half above the control has no call in these data; cut-offs in other NCI protocols can differ. Marks such as (2×) give the number of equal values in this list. Some entries were tested several times; their values stand side by side, smallest first. Some T/C values carry the count of animals alive at the toxicity check (mostly the fifth day); where none is given, no animal had died by that day.
Tested on: P388 leukemia ip, CD2F1 mice, survival T/C
Assay: NCI In Vivo Anticancer Drug Screen. Data for tumor model P388 Leukemia (intraperitoneal) in CD2F1 (CDF1) mice
Conditions: T/C endpoint: median survival time, higher T/C = longer survival
[1] = dose: 50.0 mg/kg/injection, schedule: Q01DX005 (ip), vehicle: saline with Tween-80
[2] = dose: 100.0 mg/kg/injection, schedule: Q01DX005 (ip), vehicle: saline with Tween-80
[3] = dose: 200.0 mg/kg/injection, schedule: Q01DX005 (ip), vehicle: saline with Tween-80
[4] = dose: 120.0 mg/kg/injection, schedule: Q01DX005 (ip), vehicle: Klucel (hydroxypropylcellulose) (HPC)
[5] = dose: 50.0 mg/kg/injection, schedule: Q01DX009 (ip), vehicle: Klucel (hydroxypropylcellulose) (HPC)
[6] = dose: 100.0 mg/kg/injection, schedule: Q01DX009 (ip), vehicle: Klucel (hydroxypropylcellulose) (HPC)
[7] = dose: 200.0 mg/kg/injection, schedule: Q01DX009 (ip), vehicle: Klucel (hydroxypropylcellulose) (HPC)
[8] = dose: 100.0 mg/kg/injection, schedule: Q01DX009 (ip), vehicle: saline with Tween-80
[9] = dose: 50.0 mg/kg/injection, schedule: Q01DX009 (ip), vehicle: saline with Tween-80

## Cc1c(O)c2c(c(O)c1Cc1ccc(CN)cc1)C(=O)c1ccccc1C2=O
dose: 200.0 mg/kg/injection, schedule: Q04DX003 (ip), vehicle: water
  survivor count: 5 of 6

## CCOC(=O)c1c[nH]c2oc(/C=N/N3CC(CN4CCOCC4)OC3=O)cc2c1=O (configuration not stated)
dose: 200.0 mg/kg/injection, schedule: Q01DX005 (ip), vehicle: acid diluted with saline
  T/C: 143 % of control
dose: 200.0 mg/kg/injection, schedule: Q04DX002 (ip), vehicle: saline
  T/C: 131 % of control
dose: 400.0 mg/kg/injection, schedule: Q01DX005 (ip), vehicle: acid diluted with saline
  survivor count: 6 of 6
dose: 400.0 mg/kg/injection, schedule: Q04DX002 (ip), vehicle: saline
  T/C: 140 % of control
dose: 800.0 mg/kg/injection, schedule: Q01DX005 (ip), vehicle: acid diluted with saline
  survivor count: 0 of 6

## C[C@@]12C(=O)OC(=O)[C@]1(C)[C@H]1CC[C@@H]2O1
dose: 1.0 mg/kg/injection, schedule: Q01DX005 (ip), vehicle: acetone
  survivor count: 2 of 5
dose: 2.0 mg/kg/injection, schedule: Q01DX005 (ip), vehicle: acetone
  survivor count: 0 of 5
dose: 4.0 mg/kg/injection, schedule: Q01DX005 (ip), vehicle: acetone
  survivor count: 0 of 5

## CCCCN(CCCC)C(=N)OC1CCCCC1
[1]
  survivor count: 0 of 6
[2]
  survivor count: 0 of 6
[3]
  survivor count: 0 of 6

## O=C1OC(=O)C2=C1CCC2
dose: 100.0 mg/kg/injection, schedule: Q01DX009 (ip), vehicle: distilled water + Tween-80
  survivor count: 3 of 6
dose: 200.0 mg/kg/injection, schedule: Q01DX009 (ip), vehicle: distilled water + Tween-80
  survivor count: 2 of 6

## CC1CN=C(c2ccc(NC(=O)NCCCCCCCCCNC(=O)Nc3ccc(C4=NCC(C)N4)cc3)cc2)N1 (configuration not stated)
dose: 50.0 mg/kg/injection, schedule: Q01DX005 (ip), vehicle: saline + Tween-80 + alcohol
  T/C: 128 % of control
dose: 100.0 mg/kg/injection, schedule: Q01DX005 (ip), vehicle: saline + Tween-80 + alcohol
  survivor count: 0 of 6
dose: 200.0 mg/kg/injection, schedule: Q01DX005 (ip), vehicle: saline + Tween-80 + alcohol
  survivor count: 0 of 6

## CC(=O)OC1CC2C(C)(C)OC(=O)C=CC2(C)C2CCC3(C)C(c4ccoc4)C(=O)C4OC43C12C (configuration not stated)
[4]
  survivor count: 5 of 5

## Nc1[nH]c(=S)[nH]c(=O)c1NS(=O)(=O)c1ccccc1[N+](=O)[O-]
dose: 60.0 mg/kg/injection, schedule: Q01DX005 (ip), vehicle: Klucel (hydroxypropylcellulose) (HPC)
  T/C: 142 % of control
[4]
  T/C: 142 % of control
dose: 240.0 mg/kg/injection, schedule: Q01DX005 (ip), vehicle: Klucel (hydroxypropylcellulose) (HPC)
  T/C: 141 % of control [4 of 6 alive]

## CCCCCCC(=O)/C=C/c1cc(Cl)cc(Cl)c1OCOC
[5]
  survivor count: 6 of 6

## CCc1nc(-c2ccccc2)nc2c1nc(Cc1ccccc1)n2Nc1ccccc1
dose: 200.0 mg/kg/injection, schedule: Q01DX001 (ip), vehicle: Klucel (hydroxypropylcellulose) (HPC)
  survivor count: 4 of 6
dose: 400.0 mg/kg/injection, schedule: Q01DX001 (ip), vehicle: Klucel (hydroxypropylcellulose) (HPC)
  survivor count: 0 of 6

## CC(C)=C(C#N)N(C)C(C)(C)C
dose: 200.0 mg/kg/injection, schedule: Q01DX009 (ip), vehicle: saline
  survivor count: 0 of 6

## CC1c2ccccc2CC(CCN(C)C)c2ccccc21 (configuration not stated)
dose: 25.0 mg/kg/injection, schedule: Q01DX005 (ip), vehicle: saline with Tween-80
  T/C: 125 % of control
[1]
  T/C: 127 % of control [5 of 6 alive]
  survivor count: 0 of 6
[2]
  survivor count: 0 of 5
[3]
  survivor count: 0 of 5

## CSc1noc(N)n1
dose: 100.0 mg/kg/injection, schedule: Q01DX005 (ip), vehicle: saline
  survivor count: 2 of 5
dose: 200.0 mg/kg/injection, schedule: Q01DX005 (ip), vehicle: saline
  survivor count: 0 of 5

## C=[CH][Sn]([Cl])([Cl])[CH]=C.COc1ccc(P(=O)(c2ccc(OC)cc2)c2ccc(OC)cc2)cc1
dose: 200.0 mg/kg/injection, schedule: Q04DX003 (ip), vehicle: saline
  T/C: 125 % of control

## CC[C@@H]1CN2CCc3c([nH]c4ccccc34)[C@@](C(=O)OC)(c3cc4c(cc3OC)N(C)[C@H]3[C@@](O)(C(=O)OC)[C@H](OC(C)=O)[C@]5(CC)C=CCN6CC[C@]43[C@@H]65)C[C@H](C2)[C@H]1O
dose: 8.0 mg/kg/injection, schedule: Q01DX001 (ip), vehicle: water
  T/C: 128 and 130 % of control
dose: 16.0 mg/kg/injection, schedule: Q01DX001 (ip), vehicle: water
  T/C: 133 and 141 % of control
dose: 32.0 mg/kg/injection, schedule: Q01DX001 (ip), vehicle: water
  T/C: 132 and 146 % of control
dose: 128.0 mg/kg/injection, schedule: Q01DX001 (ip), vehicle: water
  survivor count: 4 of 6

## CN(C(=S)S(=O)(=O)C12CC3CC(CC(C3)C1)C2)c1ccccc1
dose: 12.5 mg/kg/injection, schedule: Q01DX009 (ip), vehicle: Klucel (hydroxypropylcellulose) (HPC)
  T/C: 127 % of control
dose: 25.0 mg/kg/injection, schedule: Q01DX009 (ip), vehicle: Klucel (hydroxypropylcellulose) (HPC)
  T/C: 128 % of control (2×)
[5]
  T/C: 141 % of control
  survivor count: 6 of 6
[6]
  survivor count: 0 of 6
[7]
  survivor count: 0 of 6

## O=c1[nH]c2cc(Cl)ccc2c(CCl)c1Cl
[8]
  T/C: 125 % of control

## COC(=O)C1=C(C(=O)OC)C2C=CC1C1C(Cl)C(Cl)C21 (configuration not stated)
[9]
  survivor count: 6 of 6

## CCCCOCN(CCc1ccccc1)COCCCC
[9]
  T/C: 133 % of control
[8]
  T/C: 133 and 149 % of control
dose: 200.0 mg/kg/injection, schedule: Q01DX009 (ip), vehicle: saline with Tween-80
  T/C: 125 % of control
dose: 400.0 mg/kg/injection, schedule: Q01DX009 (ip), vehicle: saline with Tween-80
  survivor count: 3 of 6

## COc1ccc(OC)c(CC(C)N)c1 (configuration not stated)
dose: 240.0 mg/kg/injection, schedule: Q01DX005 (ip), vehicle: saline
  survivor count: 0 of 6

## OC1(c2ccccc2C(O)(C(F)(F)F)C(F)(F)F)OC(C(F)(F)F)(C(F)(F)F)c2ccccc21 (configuration not stated)
[5]
  survivor count: 4 of 6
[6]
  survivor count: 6 of 6
[7]
  survivor count: 0 of 6

## N#Cc1c(N)nsc1N1CCOCC1
[1]
  survivor count: 3 of 6
[2]
  survivor count: 0 of 6
[3]
  survivor count: 0 of 6

## C[P+]1(C)CCCCC1
dose: 400.0 mg/kg/injection, schedule: Q01DX001 (ip), vehicle: saline
  survivor count: 0 of 6

## O=C1C=CC(O)C2C1CC13SSC4(CC5C(=O)C=CC(O)C5N4C1=O)C(=O)N23 (configuration not stated)
dose: 16.0 mg/kg/injection, schedule: Q01DX009 (ip), vehicle: Klucel (hydroxypropylcellulose) (HPC)
  survivor count: 2 of 6
dose: 32.0 mg/kg/injection, schedule: Q01DX009 (ip), vehicle: Klucel (hydroxypropylcellulose) (HPC)
  survivor count: 0 of 6

## N#CC1=C(Nc2ccccc2)CCC1
dose: 200.0 mg/kg/injection, schedule: Q01DX005 (ip), vehicle: Klucel (hydroxypropylcellulose) (HPC)
  survivor count: 0 of 5

## CC1=C/C(=N\SC(c2ccccc2)(c2ccccc2)c2ccccc2)CCC1
dose: 400.0 mg/kg/injection, schedule: Q04DX002 (ip), vehicle: saline with Tween-80
  survivor count: 6 of 6

## Cc1ccc2nc(N3C(=O)CSC3=S)sc2c1
[7]
  survivor count: 5 of 6

## COC(=O)c1nc(=S)[nH]c(C(=O)OC)c1C(=O)c1ccc(O)cc1O
dose: 240.0 mg/kg/injection, schedule: Q01DX005 (ip), vehicle: saline with Tween-80
  survivor count: 2 of 6

## CCN(CC)CCNc1ccc(O)c2sc3ccccc3c(=O)c12
dose: 50.0 mg/kg/injection, schedule: Q01DX009 (ip), vehicle: saline + alcohol
  survivor count: 6 of 6
dose: 100.0 mg/kg/injection, schedule: Q01DX009 (ip), vehicle: saline + alcohol
  survivor count: 3 of 6
dose: 200.0 mg/kg/injection, schedule: Q01DX009 (ip), vehicle: saline + alcohol
  survivor count: 0 of 6

## COc1cc2c3cc1Oc1c(O)c(OC)cc4c1[C@H](Cc1ccc(cc1)Oc1cc(ccc1O)C[C@H]3N(C)CC2)N(C)CC4
dose: 160.0 mg/kg/injection, schedule: Q01DX009 (ip), vehicle: other
  survivor count: 4 of 6
